Measurements reported in PubChem BioAssay AID1671190 (National Center for Advancing Translational Sciences (NCATS), 2021).
About 6,100 (1.1%) of roughly 580,000 compounds were called active. The inconclusive results got no clear call from the source; some entries with a clear call stand among them for comparison. Calls come from the whole dose curve; as a rule, active = well fitted inhibition curve with a large enough effect; inconclusive = small, poorly fitted or top-dose-only effect, or another doubt; inactive = no such curve, though single readings can be large or run the other way. Where the call is inconclusive, the potency comes from a doubtful curve fit.

Amino acid sequences for entries named in this document (tags omitted). A change or cut given only in a name is not applied to a line headed by its entry.
UniProt P18054: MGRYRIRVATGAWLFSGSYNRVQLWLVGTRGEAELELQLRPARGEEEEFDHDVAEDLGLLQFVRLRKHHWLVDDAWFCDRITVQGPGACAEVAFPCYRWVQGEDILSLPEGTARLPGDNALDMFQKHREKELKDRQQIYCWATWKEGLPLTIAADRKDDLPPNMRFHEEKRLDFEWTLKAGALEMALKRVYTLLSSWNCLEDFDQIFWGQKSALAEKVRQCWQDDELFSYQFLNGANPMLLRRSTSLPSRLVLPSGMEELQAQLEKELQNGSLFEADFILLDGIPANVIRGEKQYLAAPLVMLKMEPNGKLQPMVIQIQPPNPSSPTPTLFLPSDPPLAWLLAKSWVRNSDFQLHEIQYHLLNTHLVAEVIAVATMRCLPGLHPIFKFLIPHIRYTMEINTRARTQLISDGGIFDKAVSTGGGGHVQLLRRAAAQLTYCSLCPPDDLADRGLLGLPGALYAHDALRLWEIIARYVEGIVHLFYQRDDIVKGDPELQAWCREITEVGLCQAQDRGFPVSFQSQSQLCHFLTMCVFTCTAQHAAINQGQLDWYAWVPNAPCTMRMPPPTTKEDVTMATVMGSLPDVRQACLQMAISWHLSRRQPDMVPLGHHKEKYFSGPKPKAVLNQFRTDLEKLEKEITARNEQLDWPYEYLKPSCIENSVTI

Biological target: Polyunsaturated fatty acid lipoxygenase ALOX12 (Homo sapiens) (UniProt P18054)
Assay: Primary qHTS assay for inhibitors of human arachidonate 12S-lipoxygenase (ALOX12): Round 2
Conditions: purified 12hLO, xylenol orange hydroperoxide absorbance; activity change, negative = inhibition: at 108 µM (top of the series) unless noted
Outline: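 Purified human 12hLO at 150 nM in 25 mM Hepes, 0.01% Triton X-100, pH 7.0, preincubated 15 min at room temperature with compound. Reaction started with 40 uM arachidonic acid, 30 min at room temperature. Hydroperoxide measured by Fe-xylenol orange, 573/405 nm absorbance ratio.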
% is set by controls: 0 for no effect and ±100 for the full control effect; potency is the fitted concentration of half-maximal effect.

SMILES | Potency | activity change, negative = inhibition
CC1=C(c2ccc(C)cc2)S(=O)(=O)NC1=NCc1cccc(F)c1 | inconclusive: 44.7 µM [inhibitor, partial curve, poor fit] | 
COCCn1ccnc1C1CCCN(c2ncnc3c2CCC3)C1 (centres undefined) | inconclusive: 3.16 µM [inhibitor, full curve, poor fit] | 
Cc1cc(=O)[nH]c(NCCNC(=O)C2CCC(=O)N(C3CCCCCC3)C2)n1 (centres undefined) |  | inactive: 29.6%
CCN1C(=O)c2ccccc2S(=O)c2ccc(C(=O)N3CCN(c4cccc(C)c4)C(C)C3)cc21 (centres undefined) |  | inconclusive: -34.7% [inhibitor]
COC(=O)c1ccc(NC(=O)CC2C(=O)N(c3ccc(Cl)cc3)C(=O)N2Cc2ccco2)cc1 (centres undefined) |  | inconclusive: -47.5% [inhibitor]
CCn1c2ccccc2c2cc(/C=N/n3c(-c4cc(C)[nH]n4)n[nH]c3=S)ccc21 |  | inactive: 3.07%
O=C1CCCc2c1[nH]c1ccc(CN3CCCCC3)cc21 | inconclusive: 56.2 µM [inhibitor, partial curve, poor fit] | 
COc1ccc(CNC(=O)C(C)OC(=O)c2cc(Cl)c[nH]2)cc1 (centres undefined) | inconclusive: 44.7 µM [inhibitor, partial curve, poor fit] | 
O=C(O)c1ccc(-n2c(/C=C\c3ccc(O)cc3)nc3ccccc3c2=O)cc1 | inconclusive: 56.2 µM [inhibitor, partial curve, poor fit] | 
C=CCNC(=S)Nc1ccc(Cl)cc1Cl | inconclusive: 112 µM [inhibitor, single point] | 
CCCCCCC1C(C#N)=C(N)OC2=C1C(=O)CCC2 (centres undefined) | active: 31.6 µM | 
O=C(NCCc1ccncc1)[C@@H]1[C@@H](CO)[C@@H]2Cn3c(cccc3=O)[C@H]1N2Cc1ccccc1F |  | inactive: -15.2%
Cc1ccn(-c2n[nH]c(C)c2[N+](=O)[O-])n1 |  | inactive: -8.79%
CC(/C=N/Nc1ccc([N+](=O)[O-])cc1[N+](=O)[O-])=C\c1ccco1 | inconclusive: 44.7 µM [inhibitor, partial curve, poor fit] | 
COc1cc(OC)cc(C(=O)N[C@H](C(=O)NCCc2c[nH]c3ccccc23)C(C)C)c1 | inconclusive: 70.8 µM [inhibitor, partial curve, poor fit] | 
COc1ccc(OC)c(S(=O)(=O)NCc2cccn2Cc2cccc(C)c2)c1 | inconclusive: 50.1 µM [inhibitor, partial curve, poor fit] | 
Cc1ccc(/C=N/c2sc3c(c2C#N)CCC3)s1 | inconclusive: 28.2 µM [inhibitor, partial curve, poor fit] | 
COc1ccc(Cc2c(C3CCCCC3)nc3c(C)cc(Br)cn23)c(C)c1 | inconclusive: 14.1 µM [inhibitor, full curve, poor fit] | 
CCCN(CCC)Cc1csc2c1CCCC2 |  | inactive: -26.8%
Fc1cccc(-c2cnc(Nc3cnccn3)c3c2CCO3)c1 |  | inactive: 42.9% [at 176 µM]
CC(C)COc1ccc(CNC(=S)Nc2ccccc2)cc1Cl | active: 31.6 µM | 
CCOc1cc(/C=C2/C(=O)ON=C2C)ccc1OCc1ccc(F)cc1 | inconclusive: 0.501 µM [inhibitor, full curve, poor fit] | 

SMILES | Potency | activity change, negative = inhibition
Cc1ccc(Oc2ccc(S(=O)(=O)N3CCCC3)cn2)c(Br)c1 |  | inactive: 20.3%
COc1ccc(CC(=O)Nc2cccc(-c3nnc(-c4cccc(C)c4)o3)c2)cc1OC |  | inconclusive: -41.6% [inhibitor]
NC1CCN(C2CCS(=O)CC2)CC1 (centres undefined) | inconclusive: 35.5 µM [inhibitor, partial curve, poor fit] | 
NC(Cc1ccc(C(F)(F)F)cc1)c1csc(Nc2nncc3ccccc23)n1 (centres undefined) | inconclusive: 89.1 µM [inhibitor, partial curve, poor fit] | 
COc1cc(C(=O)Oc2ccccc2/C=N/NC(=O)c2ccc(Cl)cc2)cc(OC)c1OC |  | inactive: 18%
FC(F)(F)c1ccc(/C=N/Nc2ccc(Cl)c(Cl)c2)cc1 | inconclusive: 50.1 µM [inhibitor, partial curve, poor fit] | 
CC(=O)c1c(O)c2ccccc2n(C)c1=O | inconclusive: 12.6 µM [inhibitor, partial curve, poor fit] | 
Cc1cc(S(=O)(=O)c2cc3ccccc3oc2=O)ccc1F |  | inactive: -6.04%
CCN1CCN(c2cc3c(cc2F)c(=O)c(S(=O)(=O)c2ccccc2)cn3C)CC1 |  | inconclusive: -31% [inhibitor]
CC(C)NC(=O)CCCN1C(=O)CCn2nc(-c3cccn3C)cc21 | inconclusive: 112 µM [inhibitor, partial curve, poor fit] | 
COc1ccccc1NC(=O)CSc1nc2ccccc2c2nc(-c3ccccc3)nn12 | inconclusive: 141 µM [inhibitor, partial curve, poor fit] | 
CCC(NC(=O)C1CCCC1)c1ccc(C)cc1 (centres undefined) | inconclusive: 44.7 µM [inhibitor, partial curve, poor fit] | 
CCN(CC)S(=O)(=O)c1cc(C(=O)OCc2csc(-c3ccccc3)n2)ccc1Cl | inconclusive: 25.1 µM [inhibitor, partial curve, poor fit] | 
CS(=O)(=O)N1N=C(c2cccs2)CC1c1ccccc1O (centres undefined) | inconclusive: 112 µM [inhibitor, partial curve, poor fit] | 
CCCc1ccc2oc(C(=O)N3CCN(c4cnccn4)CC3)c(C)c2c1 | inconclusive: 39.8 µM [inhibitor, partial curve, poor fit] | 
Cc1cccc(CNC(C(=O)O)C(C)C)c1 (centres undefined) | inconclusive: 0.794 µM [inhibitor, full curve, poor fit] | 
Cc1cccc(N2CCN(C(=O)c3cc(C)oc3C)CC2C)c1 (centres undefined) |  | inactive: -24.3%
Cc1cc(=O)n(CC(=O)Nc2cc(Cl)ccc2C)c(N2CCc3ccccc3C2)n1 | inconclusive: 79.4 µM [inhibitor, partial curve, poor fit] | 
O=C(Nc1nnc(Cc2ccccc2)s1)C1CCCO1 (centres undefined) |  | inactive: 18%
CCOC(=O)c1c(C)[nH]c(C)c1C(=O)COC(=O)CSc1ccc(C)cc1 |  | inactive: -7.85%
CCOc1ccc(NC(=S)Nc2cc(C)[nH]n2)cc1 | active: 39.8 µM | 
CCSC1=N/C(=C\c2cc(C)ccc2C)C(=O)S1 | inconclusive: 0.562 µM [inhibitor, full curve, poor fit] | 

Quoted at random: 2 entries already listed, in no set order.
SMILES | Potency | activity change, negative = inhibition
CCN(CC)S(=O)(=O)c1cc(C(=O)OCc2csc(-c3ccccc3)n2)ccc1Cl | inconclusive: 25.1 µM [inhibitor, partial curve, poor fit] | 
CCSC1=N/C(=C\c2cc(C)ccc2C)C(=O)S1 | inconclusive: 0.562 µM [inhibitor, full curve, poor fit] | 
